Data from publication PMC10643132, “Time-resolved cryo-EM (TR-EM) analysis of substrate polyubiquitination by the RING E3 anaphase-promoting complex/cyclosome (APC/C)” (Nature Structural & Molecular Biology, 2023).

Sequences of proteins named here, by UniProt entry; tags and fusion partners are left off.
UniProt Q12834, whole entry: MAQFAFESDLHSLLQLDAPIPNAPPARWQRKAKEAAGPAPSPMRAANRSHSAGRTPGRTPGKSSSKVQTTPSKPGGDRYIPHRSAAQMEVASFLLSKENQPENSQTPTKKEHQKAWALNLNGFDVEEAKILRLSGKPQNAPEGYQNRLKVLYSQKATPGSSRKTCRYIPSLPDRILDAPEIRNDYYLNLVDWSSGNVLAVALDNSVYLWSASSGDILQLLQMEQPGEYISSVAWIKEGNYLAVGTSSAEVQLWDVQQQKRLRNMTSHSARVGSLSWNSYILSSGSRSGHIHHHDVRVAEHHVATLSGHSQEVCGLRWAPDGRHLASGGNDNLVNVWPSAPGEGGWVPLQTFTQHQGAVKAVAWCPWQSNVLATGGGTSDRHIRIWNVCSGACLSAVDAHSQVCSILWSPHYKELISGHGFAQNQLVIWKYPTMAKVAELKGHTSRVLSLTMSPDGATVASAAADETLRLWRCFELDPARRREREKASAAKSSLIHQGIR

Target: T1, CDC20 (UniProt Q12834 1-499)
T1 construct: For enzyme assays the Flag(3x) tag was removed by HRV 3C protease; for phage display an uncleavable Myc(3x)-Hexahistidine tag was used; source: baculovirus-infected insect cells, purified (anti-Flag M2 resin, ion exchange, SEC)
Assay: pull-down; GST–UbV^CDH1 or GST–Ub with CDH1 or CDC20, GST pulldown, Coomassie-stained SDS–PAGE; n = 3
Settings: both partners purified

binding result: binds
B1: GST–UbV^CDH1 (designed binder)
chain: MQIFVKTRKGTSITLEVEPSDTIENVKAKIQDKEGIPPDQQRLRFAGKQLEDGRTLSDYNIHNASSLYLRSPLRALAG
notes: also called GST–UbV^CDH1 fusion; not shown: GST, N-terminal, kept
